Assay [1] deals with IP3 receptor‐1 (mouse (endogenous in lung tissue)) (UniProt P11881). The assay can be described thus: condition: only A. fumigatus-challenged mice treated with IC87114 or 4-PBA; proximity ligation; lung sections of A. fumigatus-challenged mice treated with 1 mg/kg IC87114 or 80 mg/kg 4-PBA; positive PLA dots per field counted.
Assay [2] has the same target. The assay can be described thus: proximity ligation; lung sections of A. fumigatus-challenged mice; bright field and fluorescence images, positive PLA dots per field counted.

Amino acid sequences for entries named in this document (tags omitted). A change or cut given only in a name is not applied to a line headed by its entry.
UniProt P11881: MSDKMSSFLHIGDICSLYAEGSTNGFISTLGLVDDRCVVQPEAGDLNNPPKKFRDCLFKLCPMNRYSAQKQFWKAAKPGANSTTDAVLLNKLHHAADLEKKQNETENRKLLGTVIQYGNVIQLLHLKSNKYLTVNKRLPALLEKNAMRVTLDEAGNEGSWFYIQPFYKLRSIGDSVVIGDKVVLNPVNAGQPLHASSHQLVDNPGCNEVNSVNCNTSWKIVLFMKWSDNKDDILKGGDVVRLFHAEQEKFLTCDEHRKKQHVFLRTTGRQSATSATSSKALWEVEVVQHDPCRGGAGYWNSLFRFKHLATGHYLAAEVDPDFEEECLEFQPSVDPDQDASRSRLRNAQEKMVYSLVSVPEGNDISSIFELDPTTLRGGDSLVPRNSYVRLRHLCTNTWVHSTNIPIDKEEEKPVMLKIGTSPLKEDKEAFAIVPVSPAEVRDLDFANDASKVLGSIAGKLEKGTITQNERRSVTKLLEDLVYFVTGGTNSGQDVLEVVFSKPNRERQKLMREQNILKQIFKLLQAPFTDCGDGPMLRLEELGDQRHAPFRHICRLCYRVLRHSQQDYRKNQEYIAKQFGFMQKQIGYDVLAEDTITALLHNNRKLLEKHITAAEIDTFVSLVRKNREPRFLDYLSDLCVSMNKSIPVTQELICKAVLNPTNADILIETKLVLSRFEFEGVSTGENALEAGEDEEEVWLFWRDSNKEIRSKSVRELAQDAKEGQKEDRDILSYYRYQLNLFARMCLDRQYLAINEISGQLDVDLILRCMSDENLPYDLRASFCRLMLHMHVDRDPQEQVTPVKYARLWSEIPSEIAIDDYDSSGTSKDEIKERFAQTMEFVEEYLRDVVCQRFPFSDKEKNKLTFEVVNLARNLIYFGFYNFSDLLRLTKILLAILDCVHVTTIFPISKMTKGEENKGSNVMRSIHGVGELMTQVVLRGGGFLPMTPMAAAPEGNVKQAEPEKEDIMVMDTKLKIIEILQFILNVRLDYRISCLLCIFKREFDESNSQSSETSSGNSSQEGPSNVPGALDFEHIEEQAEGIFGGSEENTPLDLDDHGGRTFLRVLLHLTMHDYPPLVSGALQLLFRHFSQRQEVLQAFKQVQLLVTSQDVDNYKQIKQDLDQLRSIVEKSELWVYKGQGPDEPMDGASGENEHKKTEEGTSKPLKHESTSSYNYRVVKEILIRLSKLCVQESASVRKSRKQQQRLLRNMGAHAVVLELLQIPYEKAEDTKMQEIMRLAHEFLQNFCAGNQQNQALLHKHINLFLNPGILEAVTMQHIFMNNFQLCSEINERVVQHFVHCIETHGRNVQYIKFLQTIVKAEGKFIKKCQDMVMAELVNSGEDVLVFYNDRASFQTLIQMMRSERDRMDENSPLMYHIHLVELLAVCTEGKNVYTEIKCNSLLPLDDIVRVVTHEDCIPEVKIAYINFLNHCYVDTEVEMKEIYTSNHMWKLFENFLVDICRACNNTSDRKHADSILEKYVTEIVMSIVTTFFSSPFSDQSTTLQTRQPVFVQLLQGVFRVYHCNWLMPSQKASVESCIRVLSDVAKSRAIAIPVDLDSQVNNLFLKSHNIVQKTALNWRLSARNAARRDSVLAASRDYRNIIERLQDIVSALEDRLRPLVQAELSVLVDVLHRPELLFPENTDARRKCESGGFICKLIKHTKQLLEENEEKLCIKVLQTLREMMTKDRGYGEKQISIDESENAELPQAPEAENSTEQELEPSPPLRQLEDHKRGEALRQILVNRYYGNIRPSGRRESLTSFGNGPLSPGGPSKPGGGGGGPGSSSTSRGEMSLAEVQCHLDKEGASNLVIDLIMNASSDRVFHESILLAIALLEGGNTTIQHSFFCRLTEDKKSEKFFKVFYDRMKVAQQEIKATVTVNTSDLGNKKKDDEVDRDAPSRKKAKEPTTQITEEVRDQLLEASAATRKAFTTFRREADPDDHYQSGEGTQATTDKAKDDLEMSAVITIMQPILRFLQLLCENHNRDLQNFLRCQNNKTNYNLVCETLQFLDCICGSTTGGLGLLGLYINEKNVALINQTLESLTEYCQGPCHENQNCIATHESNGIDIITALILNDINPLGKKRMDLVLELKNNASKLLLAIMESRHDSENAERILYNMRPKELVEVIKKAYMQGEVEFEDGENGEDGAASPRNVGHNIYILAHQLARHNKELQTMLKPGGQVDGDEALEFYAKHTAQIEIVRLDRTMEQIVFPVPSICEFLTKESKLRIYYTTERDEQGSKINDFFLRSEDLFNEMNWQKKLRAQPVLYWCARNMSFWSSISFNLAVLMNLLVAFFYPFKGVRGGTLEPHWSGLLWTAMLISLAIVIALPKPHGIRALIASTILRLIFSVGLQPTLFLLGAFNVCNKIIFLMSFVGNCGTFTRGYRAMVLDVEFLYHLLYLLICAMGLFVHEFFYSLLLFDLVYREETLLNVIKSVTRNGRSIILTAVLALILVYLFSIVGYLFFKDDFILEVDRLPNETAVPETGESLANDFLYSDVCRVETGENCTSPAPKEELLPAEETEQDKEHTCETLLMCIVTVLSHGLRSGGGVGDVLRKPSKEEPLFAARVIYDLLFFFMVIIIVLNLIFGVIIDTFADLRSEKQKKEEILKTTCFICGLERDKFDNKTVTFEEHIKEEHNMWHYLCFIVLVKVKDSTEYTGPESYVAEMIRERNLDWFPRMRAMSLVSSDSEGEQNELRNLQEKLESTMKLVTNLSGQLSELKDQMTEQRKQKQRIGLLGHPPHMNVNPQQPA
UniProt Q60932: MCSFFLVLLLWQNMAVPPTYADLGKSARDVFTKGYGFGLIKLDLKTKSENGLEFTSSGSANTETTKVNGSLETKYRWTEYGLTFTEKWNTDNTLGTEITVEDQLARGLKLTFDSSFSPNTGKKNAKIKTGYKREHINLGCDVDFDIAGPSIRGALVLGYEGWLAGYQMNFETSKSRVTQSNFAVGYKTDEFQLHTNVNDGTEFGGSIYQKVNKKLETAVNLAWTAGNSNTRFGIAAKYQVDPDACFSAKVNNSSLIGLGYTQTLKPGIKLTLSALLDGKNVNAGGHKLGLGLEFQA

This note sets out measurements from article PMC7060358.

These are yes or no findings as the source states them, for the method shown. Binding seen in cells or lysates may run through a third protein. For some assays here: A result given as binding can be weak or reduced; the word gives no strength.

Consider “voltage‐dependent anion‐selective channel 1 (from UniProt Q60932)”, for which the binding entry was “no binding” in assay [1] and “binds” in assay [2].
